Source: publication PMC9373809
No constants are given. Whether binding was seen depends on the method and setting. In cells and extracts the contact can be indirect. Some results given as binding are weak or reduced against the parent protein; the word gives no strength.

The chains behind the UniProt entries cited, without tags or fusion partners. Where a name states a change or a piece, a line headed by the entry shows the natural chain unless it says otherwise. A line that says so, or that is headed by a name, gives the form on record, which may keep a tag or linker. Residues count along the entry.
UniProt O15047: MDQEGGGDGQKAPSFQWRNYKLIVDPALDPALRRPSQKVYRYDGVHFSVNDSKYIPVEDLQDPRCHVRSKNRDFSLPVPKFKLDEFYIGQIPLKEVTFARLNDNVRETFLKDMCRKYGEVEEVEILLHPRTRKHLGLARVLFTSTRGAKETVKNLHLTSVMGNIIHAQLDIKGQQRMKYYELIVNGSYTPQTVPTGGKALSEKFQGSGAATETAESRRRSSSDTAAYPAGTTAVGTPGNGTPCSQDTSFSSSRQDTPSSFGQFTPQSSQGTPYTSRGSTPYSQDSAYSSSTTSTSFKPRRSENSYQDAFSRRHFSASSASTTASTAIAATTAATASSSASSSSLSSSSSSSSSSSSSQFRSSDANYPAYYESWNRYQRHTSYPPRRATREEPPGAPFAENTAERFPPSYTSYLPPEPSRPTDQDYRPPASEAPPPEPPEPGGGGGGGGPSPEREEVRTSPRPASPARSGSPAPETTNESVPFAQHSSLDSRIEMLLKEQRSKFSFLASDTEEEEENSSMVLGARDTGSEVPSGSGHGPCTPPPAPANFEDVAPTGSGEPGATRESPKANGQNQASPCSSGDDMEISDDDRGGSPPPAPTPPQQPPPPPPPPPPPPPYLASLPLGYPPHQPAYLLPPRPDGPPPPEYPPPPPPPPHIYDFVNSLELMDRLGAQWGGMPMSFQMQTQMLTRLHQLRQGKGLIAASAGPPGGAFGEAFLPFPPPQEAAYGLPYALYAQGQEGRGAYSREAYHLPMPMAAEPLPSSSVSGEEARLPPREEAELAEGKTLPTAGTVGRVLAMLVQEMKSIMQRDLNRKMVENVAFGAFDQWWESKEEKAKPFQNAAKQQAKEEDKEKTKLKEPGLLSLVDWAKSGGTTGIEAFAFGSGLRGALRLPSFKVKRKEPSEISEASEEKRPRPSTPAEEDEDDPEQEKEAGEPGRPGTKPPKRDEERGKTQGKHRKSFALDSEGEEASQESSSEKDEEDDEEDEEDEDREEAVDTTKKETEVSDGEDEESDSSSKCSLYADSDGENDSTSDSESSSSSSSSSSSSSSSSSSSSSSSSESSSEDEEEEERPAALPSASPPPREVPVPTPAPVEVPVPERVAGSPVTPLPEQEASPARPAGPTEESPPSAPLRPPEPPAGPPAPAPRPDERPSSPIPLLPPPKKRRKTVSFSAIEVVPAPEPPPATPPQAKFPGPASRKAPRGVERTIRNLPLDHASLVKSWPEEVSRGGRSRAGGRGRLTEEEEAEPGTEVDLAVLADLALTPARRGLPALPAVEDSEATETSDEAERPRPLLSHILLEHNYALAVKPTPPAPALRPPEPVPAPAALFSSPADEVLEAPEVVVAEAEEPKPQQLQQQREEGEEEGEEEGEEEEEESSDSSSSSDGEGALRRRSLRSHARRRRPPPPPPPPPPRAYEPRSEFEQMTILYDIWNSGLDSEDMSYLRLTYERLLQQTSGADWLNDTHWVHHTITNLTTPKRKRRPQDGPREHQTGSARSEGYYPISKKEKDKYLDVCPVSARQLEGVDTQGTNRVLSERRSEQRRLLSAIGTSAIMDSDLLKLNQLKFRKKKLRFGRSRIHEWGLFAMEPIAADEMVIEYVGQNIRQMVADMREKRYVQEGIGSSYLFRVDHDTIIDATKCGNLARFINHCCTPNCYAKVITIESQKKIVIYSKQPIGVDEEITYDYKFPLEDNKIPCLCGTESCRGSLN
His-tagged SET domain of SETD1A with the Win motif (Win-SET, a.a. 1450-1707): residues 1450-1707 of O15047
UniProt P48431: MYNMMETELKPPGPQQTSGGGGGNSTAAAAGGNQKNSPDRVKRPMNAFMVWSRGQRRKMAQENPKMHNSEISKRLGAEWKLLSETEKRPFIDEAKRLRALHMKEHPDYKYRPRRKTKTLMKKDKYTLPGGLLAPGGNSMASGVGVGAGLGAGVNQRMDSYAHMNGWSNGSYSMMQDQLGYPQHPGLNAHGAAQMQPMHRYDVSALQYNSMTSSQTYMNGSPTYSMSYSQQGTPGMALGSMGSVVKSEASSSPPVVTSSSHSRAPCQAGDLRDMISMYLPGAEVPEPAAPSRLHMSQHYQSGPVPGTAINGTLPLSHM
GST-fused SOX2 (a.a. 1-204): residues 1-204 of P48431
GST-fused SOX2 (a.a. 1-120): residues 1-120 of P48431

Experiments:
[1] = target: His-tagged SET domain of SETD1A with the Win motif (Win-SET, a.a. 1450-1707) (UniProt O15047); assay: pull-down; His-tagged SET domains of SETD1A (Win-SET or SET) bound to Ni-NTA beads, incubated with TamR cell lysates; bound SOX2 detected with anti-SOX2 antibody; only the target purified
[2] = target: SET domain containing 1A (SETD1A), endogenous (human (endogenous in TamR MCF-7)) (UniProt O15047); assay: co-IP; TamR cell extracts (20 mM Tris-Cl pH 8.0, 150 mM NaCl, 1% NP-40, 2 mM EDTA); anti-SETD1A or anti-SOX2 antibody on Protein A/G agarose beads, overnight at 4 °C; western blot of SOX2 or SETD1A
[3] = target: GST-fused SOX2 (a.a. 1-317) (UniProt P48431); assay: pull-down; GST-tagged SOX2 truncations from E. coli incubated with in vitro transcribed and translated FLAG-tagged full-length SETD1A; bound SETD1A detected with anti-FLAG antibody; only the target purified
[4] = target: GST-fused SOX2 (a.a. 1-120) (UniProt P48431); assay: as above
[5] = target: GST-fused SOX2 (a.a. 1-204) (UniProt P48431); assay: as above

| binding [1] | binding [2] | binding [3] | binding [4] | binding [5] | Substance |
| --- | --- | --- | --- | --- | --- |
| binds | binds | – | – | – | SRY-box transcription factor 2 (SOX2), endogenous (from UniProt P48431 1-317) |
| – | – | binds | binds | binds | FLAG-tagged full-length SETD1A (from UniProt O15047 1-1707) |
